According to patent publication US6963769B1, “Method for enhancing contrast produced by MRI” (The United States of America as represented by the …, priority 1999, dated 2005):
Values joined by “and” are separate entries in the source; they are usually repeats but may differ in a detail not shown here. Equal values may be shown once.

Key:
[1] = in vitro CEDST spectra of candidate contrast agents (proton chemical exchange with water), 7T
[2] = ratiometric CEDST analysis of two exchange sites versus pH; format: physicochemical; settings: 62.5 mM, Site 1: 2.67 ppm, Site 2: 5.00 ppm
[3] = 62.5 mM, 37° C., 20 mM phosphate buffer, site (ppm) of the same table row
[4] = 125 mM, 37° C., 20 mM phosphate buffer, site (ppm) of the same table row
[5] = 62.5 mM, 0-30 mM pH 6 phosphate buffer

O=C1NC(=O)C(=O)N1 [Parabanic Acid]
pH where the greatest proton chemical exchange effect was noted [1, 3]: 7.0 and 8.0

NC(=O)CC[C@H](N)C(=O)O [L-Glutamine]
pH where the greatest proton chemical exchange effect was noted [1, 4]: 5.2

CCC1(CC)C(=O)NC(=O)NC1=O [Barbital (5,5-Diethyl-Barbituric Acid), 5,5-Diethyl-Barbituric Acid]
pH where the greatest proton chemical exchange effect was noted [1, 3]: 4.0

N[C@@H](Cc1c[nH]c2ccccc12)C(=O)O [L-Tryptophan]
pH where the greatest proton chemical exchange effect was noted ([1]; 35 mM, —NH2, 37° C., 20 mM phosphate buffer): 6.5

NCCCC[C@H](N)C(=O)O [L-Lysine]
pH where the greatest proton chemical exchange effect was noted [1, 4]: 4.0

O=C1NCCN1 [2-Imidazolidone]
pH where the greatest proton chemical exchange effect was noted ([1]; imidazole derivatives, ring protons (—NH), concentration not given, 37° C., 20 mM phosphate buffer): 5.0 and 8.0

O=C1CC(=O)NC(=O)N1 [Barbituric Acid]
pH of exchange optimum / peak ST effect ([1]; 62.5 mM, 37° C.): ~6.5 | pH where the greatest proton chemical exchange effect was noted [1, 3]: 6.5 | saturation power level (B1) at which the ST effect optimizes ([1]; 125 mM, pH 7.0, 37° C. (FIG. 5)): about 16 ×10^−7 T

O=C1CC(=O)NC(=S)N1 [2-Thio-Barbituric Acid]
pH of exchange optimum / peak ST effect ([1]; 62.5 mM, 37° C.): 4.0 | pH where the greatest proton chemical exchange effect was noted [1, 3]: 5.0

Cc1cn([C@H]2C[C@H](O)[C@@H](CO)O2)c(=O)[nH]c1=O [Thymidine]
pH where the greatest proton chemical exchange effect was noted ([1]; 125 mM, 3-NH, 37° C., 2 mM phosphate buffer): 5.0

C[C@H](N)C(=O)O [L-Alanine]
pH where the greatest proton chemical exchange effect was noted [1, 4]: 4.0

O=C1CCNC(=O)N1 [5,6 Dihydrouracil]
pH region in which the agent is effective (ratiometric standard curve) [2]: ~6.5 | effect of phosphate concentration on the site at 2.67 ppm [1, 5]: significantly affected by changes in phosphate concentration | effect of phosphate concentration on the site at 5.00 ppm [1, 5]: substantially unaffected by changes in phosphate concentration | pH where the greatest proton chemical exchange effect was noted [1, 3]: 6.0 and 7.0 | pH at which the exchange site at 2.67 ppm optimizes ([1]; 62.5 mM, 37° C., 2.67 ppm site): 7 | pH at which the exchange site at 5.0 ppm optimizes ([1]; 62.5 mM, 37° C., 5.0 ppm site): 6

O=C(O)C1CCCCN1 (stereo not shown) [Pipecolinic Acid]
pH where the greatest proton chemical exchange effect was noted [1, 3]: 5.0

N[C@@H](Cc1c[nH]c2ccc(O)cc12)C(=O)O [5-Hydroxy-Tryptophan]
pH where the greatest proton chemical exchange effect was noted [1, 3]: 4.0 and 8.0 | pH of minimum Ms value ([1]; 5.33 ppm site (first of 'respectively')): 4 | pH range over which exchange rates were suitable ([1]; indole ring —NH): 7.0-8.0

O=C1CNC(=O)N1 [Hydantoin]
pH where the greatest proton chemical exchange effect was noted [1, 3]: 4.0 and 6.0

O=C(O)C1CCN1 (stereo not shown) [Azetidine-2-Carboxylic Acid]
pH where the greatest proton chemical exchange effect was noted [1, 3]: 5.0
